Measurements: PubChem BioAssay AID623979 (Broad Institute, 2012)
The shares of active, inactive and inconclusive entries below differ from those in the screen. Active and inactive are the calls of the source.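 How the source made its calls: active means fitted half-maximal inhibition concentration at or below twice the top tested dose in every test run; inconclusive means runs disagree, or a weak flat response or poor fit; inactive means the rest, including flat or wrong-direction curves.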

Molecular target: Cyclin-dependent kinase 5 activator 1 (Homo sapiens) + Cyclin-dependent kinase 5 (Homo sapiens) (UniProt Q15078+Q00535)
Assay: CDK5-p25 kinase inhibition, dose response, selectivity assay for GSK3beta inhibitor project, biochemical, microfluidic mobility shift, dry powder, set 2 (AID 623979)
Details: recombinant CDK5-p25, Caliper peptide conversion, 55 min; at 35 µM (top of the series) unless noted

Row | Compound | activity change, negative = inhibition
1 | Cc1ccc(S(=O)(=O)N2CCN(CC(=O)N/N=C/c3ccccn3)CC2)cc1 | inactive: -4.16%
2 | COC(=O)C(C)Sc1ccc2nnc(-c3ccc(F)cc3)n2n1 (stereo unspecified) | inconclusive: -25%
3 | COc1ccc(/C=C2\SC(=NCc3ccccc3)NC2=O)cc1 | inconclusive: -8.85%
4 | Clc1ccc(CSc2nnc(-c3ccncc3)o2)c(Cl)c1 | inactive: -0.53%
5 | Fc1cccc(Nc2nc(-c3ccncc3)nc3ccccc23)c1 | inconclusive: -13.9%
6 | O=S(=O)(Nc1ccccn1)c1ccc(N=Cc2c(O)[nH]c3ccc4ncsc4c23)cc1 | inconclusive: -100% [at 19.5 µM]
